The results in this text go back to article PMC5577129.

Protein sequences, listed by entry. Tags and fused reporters are not part of them. Lines headed by an entry give the natural chain unless they say otherwise; changes in a name come on top.
UniProt Q5Q0E6: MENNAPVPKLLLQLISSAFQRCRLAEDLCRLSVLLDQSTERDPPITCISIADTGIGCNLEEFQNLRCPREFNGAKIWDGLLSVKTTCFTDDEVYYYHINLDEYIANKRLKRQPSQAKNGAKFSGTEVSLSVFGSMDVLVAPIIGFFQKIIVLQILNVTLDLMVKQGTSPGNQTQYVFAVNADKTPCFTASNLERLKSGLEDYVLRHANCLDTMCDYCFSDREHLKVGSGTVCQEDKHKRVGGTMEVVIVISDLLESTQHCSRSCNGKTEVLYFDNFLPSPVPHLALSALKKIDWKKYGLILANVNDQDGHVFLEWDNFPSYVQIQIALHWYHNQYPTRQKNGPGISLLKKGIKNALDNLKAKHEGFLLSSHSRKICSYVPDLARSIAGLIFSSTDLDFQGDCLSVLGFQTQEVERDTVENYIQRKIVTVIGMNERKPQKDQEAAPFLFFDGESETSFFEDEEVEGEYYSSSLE

These are yes or no findings as the source states them, for the method shown. Binding calls can cover weak binding; strength is not graded here. For some of these results: Binding seen in cells or lysates may run through a third protein. For some of these results: Sequences can lack the tags named with a protein.

B1: AtPRD1-A (1–388 aa) (domain or fragment, UniProt O23277 1-388)
chain: MFFQHSQLQNSDHLLHESMADSNHQSLSPPCANGHRSTISLRDDQGGTFCLICFSNLVSDPRIPTVHVSYALHQLSIAISEPIFLRTLLSSHIHFLVSPLVHALSSIDDAPIAIQIMDMISLLCSVEESSIGEDFVERISDQLSSGALGWSRRQLHMLHCFGVLMSCENININSHIRDKEALVCQLVEGLQLPSEEIRGEILFALYKFSALQFTEQNVDGIEVLSLLCPKLLCLSLEALAKTQRDDVRLNCVALLTILAQQGLLANSHSNSASSMSLDEVDDDPMQTAENVAARPCLNVLFAEAIKGPLLSTDSEVQIKTLDLIFHYISQESTPSKQIQVMVEENVADYIFEILRLSECKDQVVNSCLRVLDLFSLAEHSFRKRLVIG
B2: AtPRD1-E (1110–1330 aa) (domain or fragment, UniProt O23277 1110-1330)
chain: TNSALCLSMILGWEDMEGRTEMLKTSSWYRFIAEEMSVSLAMPCSASSTYVNHHKPAVYLTVAMLRLKNKPVWLRTVFDESCISSMIQNLNGINISREIVILFRELMQAELLNSQQVTKLDRAFQECRKQMHRNGTRDETVEEQVQRKIPSIHDHSEFCNYLVHLMVSNSFGHPSESETYTQKKKQILDEMEQFSELISTREGRVSPIQEETRQMQTERIV
B3: AtPRD1-C (813–962 aa) (domain or fragment, UniProt O23277 813-962)
chain: ISEGDNYAATLLVNLLTQLAEKEEQENDVISILNLMNTIVSIFPTASNNLSMNGIGSVIHRLVSGFSNSSLGTSFRTLLLLVFNILTSVQPAVLMIDESWYAVSIKLLNFLSLRDTAIKQNHEDMVVIGILSLVLYHSSDGALVEASRNI
B4: AtPRD1-B (389–812 aa) (domain or fragment, UniProt O23277 389-812)
chain: FPSVIRVLHYVGEVPCHPFQIQTLKLISSCISDFPGIASSSQVQEIALVLKKMLERYYSQEMGLFPDAFAIICSVFVSLMKTPSFGETADVLTSLQESLRHSILASLSLPEKDSTQILHAVYLLNEVYVYCTASTSINKTICIELRHCVIDVCTSHLLPWFLSDVNEVNEEATLGIMETFHSILLQNSDIQAKEFAELLVSADWFSFSFGCLGNFCTDNMKQRIYLMLSSLVDILLEQKTGSHIRDALHCLPSDPQDLLFLLGQASSNNQELASCQSAALLIFHTSSIYNDRLADDKLVLASLEQYIILNKTSLICAISDSPALLNLVNLYGLCRSLQNERYQISYSLEAERIIFHLLNEYEWDLGSINIHLESLKWLFQQESISKSLIYQIQKISRNNLIGNEVHNVYGDGRQRSLTYWFAKL
B5: AtPRD1-D (963–1109 aa) (domain or fragment, UniProt O23277 963-1109)
chain: VSNSYLVSAINTVVDVACSKGPALTQCQDETNIGEALAFTLLLYFFSLRSLQIVLAGAVDWQTFFGTSTSLETLPVVCIHCHNLCRLMHFGAPQIKLIASYCLLELLTGLSEQVDIKKEQLQCSSSYLKSMKAVLGGLVFCDDIRVA
B6: AtPRD1-A (1–388 aa) (BiFC fusion) (domain or fragment, UniProt O23277 1-388)
chain: MFFQHSQLQNSDHLLHESMADSNHQSLSPPCANGHRSTISLRDDQGGTFCLICFSNLVSDPRIPTVHVSYALHQLSIAISEPIFLRTLLSSHIHFLVSPLVHALSSIDDAPIAIQIMDMISLLCSVEESSIGEDFVERISDQLSSGALGWSRRQLHMLHCFGVLMSCENININSHIRDKEALVCQLVEGLQLPSEEIRGEILFALYKFSALQFTEQNVDGIEVLSLLCPKLLCLSLEALAKTQRDDVRLNCVALLTILAQQGLLANSHSNSASSMSLDEVDDDPMQTAENVAARPCLNVLFAEAIKGPLLSTDSEVQIKTLDLIFHYISQESTPSKQIQVMVEENVADYIFEILRLSECKDQVVNSCLRVLDLFSLAEHSFRKRLVIG
B7: AtPRD1 (BiFC fusion) (protein, UniProt O23277 1-1330)
chain: MFFQHSQLQNSDHLLHESMADSNHQSLSPPCANGHRSTISLRDDQGGTFCLICFSNLVSDPRIPTVHVSYALHQLSIAISEPIFLRTLLSSHIHFLVSPLVHALSSIDDAPIAIQIMDMISLLCSVEESSIGEDFVERISDQLSSGALGWSRRQLHMLHCFGVLMSCENININSHIRDKEALVCQLVEGLQLPSEEIRGEILFALYKFSALQFTEQNVDGIEVLSLLCPKLLCLSLEALAKTQRDDVRLNCVALLTILAQQGLLANSHSNSASSMSLDEVDDDPMQTAENVAARPCLNVLFAEAIKGPLLSTDSEVQIKTLDLIFHYISQESTPSKQIQVMVEENVADYIFEILRLSECKDQVVNSCLRVLDLFSLAEHSFRKRLVIGFPSVIRVLHYVGEVPCHPFQIQTLKLISSCISDFPGIASSSQVQEIALVLKKMLERYYSQEMGLFPDAFAIICSVFVSLMKTPSFGETADVLTSLQESLRHSILASLSLPEKDSTQILHAVYLLNEVYVYCTASTSINKTICIELRHCVIDVCTSHLLPWFLSDVNEVNEEATLGIMETFHSILLQNSDIQAKEFAELLVSADWFSFSFGCLGNFCTDNMKQRIYLMLSSLVDILLEQKTGSHIRDALHCLPSDPQDLLFLLGQASSNNQELASCQSAALLIFHTSSIYNDRLADDKLVLASLEQYIILNKTSLICAISDSPALLNLVNLYGLCRSLQNERYQISYSLEAERIIFHLLNEYEWDLGSINIHLESLKWLFQQESISKSLIYQIQKISRNNLIGNEVHNVYGDGRQRSLTYWFAKLISEGDNYAATLLVNLLTQLAEKEEQENDVISILNLMNTIVSIFPTASNNLSMNGIGSVIHRLVSGFSNSSLGTSFRTLLLLVFNILTSVQPAVLMIDESWYAVSIKLLNFLSLRDTAIKQNHEDMVVIGILSLVLYHSSDGALVEASRNIVSNSYLVSAINTVVDVACSKGPALTQCQDETNIGEALAFTLLLYFFSLRSLQIVLAGAVDWQTFFGTSTSLETLPVVCIHCHNLCRLMHFGAPQIKLIASYCLLELLTGLSEQVDIKKEQLQCSSSYLKSMKAVLGGLVFCDDIRVATNSALCLSMILGWEDMEGRTEMLKTSSWYRFIAEEMSVSLAMPCSASSTYVNHHKPAVYLTVAMLRLKNKPVWLRTVFDESCISSMIQNLNGINISREIVILFRELMQAELLNSQQVTKLDRAFQECRKQMHRNGTRDETVEEQVQRKIPSIHDHSEFCNYLVHLMVSNSFGHPSESETYTQKKKQILDEMEQFSELISTREGRVSPIQEETRQMQTERIV

In the first assay the target is MTOPVIB (Arabidopsis thaliana) (UniProt Q5Q0E6). Put plainly: two-hybrid; Gal4 vector system (Clontech), pGBKT7 and pGADT7, yeast AH109; growth on SD/-Trp-Leu-His-Ade plates, 3 to 7 days, 30 °C; cells serially diluted.
In the case of B1, the binding result is listed as “binds”. Turning to B2, the binding entry is on record as “no binding”. The same measure, in the same setting: with B3 the entry was “no binding”; with B4, “no binding”. Still for that read-out and setting: as for B5, the entry is “binds weakly”.

In another assay the target is MTOPVIB (BiFC fusion) (Arabidopsis thaliana) (UniProt Q5Q0E6). In words: split reporter; BiFC, pSPYNE-35S and pSPYCE-35S, onion epidermal cells, gene gun; confocal microscopy 16–24 h after transformation.
As to B6, the binding result was “binds”.

B7: the binding result is “binds”.
